Results reported in PubChem BioAssay AID493014 (National Center for Advancing Translational Sciences (NCATS), 2011).
About 170 (0.05%) of roughly 340,000 compounds were called active. This list was built around the results that the source calls inconclusive (neither active nor inactive); the mix of calls is not that of the screen. Calls follow the shape of the dose curve; as a rule, active = well fitted inhibition curve with a large enough effect in the signal ratio, with a control signal flat (not every such curve was filed as active); inconclusive = small, poorly fitted or top-dose-only effect, or effect the other way, or a change in a side signal; inactive = flat fitted curve, though single readings scatter; the % refers to the signal ratio. Potencies of inconclusive entries are doubtful fits and often do not repeat.

Test: qHTS Assay to Find Inhibitors of Chronic Active B-Cell Receptor Signaling;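 as to activity change, negative = inhibition: plate controls were basal doxycycline-induced cells for no effect and cells given 10 µM MG132 for full effect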
Conditions: ABC-DLBCL IkBa-CBG/CBR reporter, luminescence ratio (green luciferase fused to IkBa over red control in TMD8 lymphoma cells), 4 h; activity change, negative = inhibition: at 46.1 µM (top of the series)
Procedure, shortened: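 Doxycycline induced both beetle luciferases in TMD8 lymphoma cells; IKK-driven degradation limits the IkappaBalpha-fused green signal, while red luminescence normalises for cell number and nonspecific effects. Compounds tested up to 46 uM, 4 hrs.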
Potency is read from the fitted curve at half-maximal effect.

Row | SMILES | activity change, negative = inhibition | Potency
1 | CCOC(=O)CN1CC23C=CC(O2)C(C(=O)Nc2ccc(F)c(C)c2)C3C1=O (stereo unspecified) | inconclusive: 22.5% | 
2 | O=C1c2ccccc2C(O)N1Cc1cccs1 (stereo unspecified) | inconclusive: 3.99% | 
3 | Cc1cccc(NC(=S)NNC(=O)c2csc(C)c2)c1 |  | inconclusive: 20.6 µM [falling, single point]
4 | COC(=O)CCC(=O)Nc1cc(Cl)cc(Cl)c1 |  | inconclusive: 2.51 µM [activator, full curve]
5 | Cc1cc2nc(N)sc2cc1[N+](=O)[O-] |  | inconclusive: 12.6 µM [falling, partial curve, poor fit]
6 | O=C(c1cnc(Cl)c(Cl)c1)N1CCN(S(=O)(=O)c2ccc3ccccc3c2)CC1 |  | inconclusive: 14.6 µM [falling, partial curve, poor fit]
7 | CCNC(=S)N/N=C(\C)c1ccc2ccccc2c1 |  | inconclusive: 22.4 µM [cytotoxic, partial curve]
8 | CCOC(=O)C1=C(CCc2ccccc2)NC(=O)NC1c1cccc([N+](=O)[O-])c1 (stereo unspecified) | inactive | 
9 | Cc1cc(C)c2c(N)c(C(=O)c3cccc(Cl)c3)sc2n1 |  | inconclusive: 20.6 µM [falling, partial curve, poor fit]
10 | CCCCNC(=S)NCCN1CCCCC1 | inactive | 
11 | CCCn1c2ccc(/C(C)=N\O)cc2c2cc(/C(C)=N/O)ccc21 | inconclusive: -26.6% | 
12 | CC1(OC(=O)CCc2ccccc2)C(=O)C=C2C=C(c3ccc(C#N)cc3)N(Cc3ccco3)C=C2C1=O (stereo unspecified) | inconclusive: 17.5% | 
13 | Cc1ccnc(NC(=O)C2COc3ccccc3O2)c1 (stereo unspecified) |  | inconclusive: 23.1 µM [falling, single point]
14 | O=C(NCc1ccccc1Cl)c1ccc(CSc2nc3ccncc3[nH]2)cc1 | inactive | 
15 | CC(C)NCC(O)(c1ccc(Cl)cc1)c1ccc(Cl)cc1 | inconclusive: -14.4% | 
16 | N#CCSc1nccc(-c2cc(Cl)sc2Cl)n1 | inconclusive: 25.4% | 
17 | COc1cc(NC(=O)COc2cccc(C)c2C)ccc1NC(=O)c1ccco1 | inconclusive: 14.2% | 
18 | CCOc1ccc(N(CC(=O)NC(C)C)C(=O)CCC(=O)Nc2ccccn2)cc1 | inconclusive: -16.1% | 
19 | O=C(NCCCN1CCCC1)C1CCN(C(=O)c2cc3sccc3n2Cc2ccc(F)cc2)CC1 | inconclusive: 18.3% | 
20 | c1ccc2c(c1)nc(N1CCOCC1)c1c3ccccc3[nH]c21 | inconclusive: 4.57% | 
21 | CC[C@H](C)[C@H](NC(N)=O)C(=O)Nc1ccccc1F |  | inconclusive: 17.8 µM [falling, single point]
22 | CCC1(C)Cc2c(sc3nnn(CC(=O)Nc4ccc(Cl)cc4)c(=O)c23)CO1 (stereo unspecified) | inconclusive: 11.3% | 
23 | CCCCN(C(=O)CSc1nnc2ccccn12)c1c(N)n(Cc2ccccc2)c(=O)[nH]c1=O | inconclusive: 3.36% | 
24 | Cc1cc(NN)nc(NS(=O)(=O)c2ccc(Cl)cc2)n1 | inconclusive: 0.137% | 
25 | Cc1cc(C)n(NC(=S)NC2CCCC2)c(=O)c1C#N | inconclusive: 1.34% | 
26 | Cc1ccccc1Nc1nc(-c2sc(NC(=O)c3ccccc3)nc2C)cs1 |  | inconclusive: 35.5 µM [falling, single point]

Taken from above:
In activity change, negative = inhibition, c1ccc2c(c1)nc(N1CCOCC1)c1c3ccccc3[nH]c21 reads inconclusive: 4.57%
In activity change, negative = inhibition, CC(C)NCC(O)(c1ccc(Cl)cc1)c1ccc(Cl)cc1 reads inconclusive: -14.4%
In activity change, negative = inhibition, Cc1cc(NN)nc(NS(=O)(=O)c2ccc(Cl)cc2)n1 reads inconclusive: 0.137%

Later entries.

Row | SMILES | activity change, negative = inhibition | Potency
27 | COc1ccc(CNc2cc(C)ccc2C)c(OC)c1OC | inconclusive: -0.543% | 
28 | O=C(NNC(=O)c1ccccc1[N+](=O)[O-])Nc1ccccc1C(F)(F)F |  | inconclusive: 1 µM [falling, partial curve, poor fit]
29 | Cc1cc(=O)[nH]c2nnc(SCc3c(F)cccc3Cl)n12 |  | inconclusive: 0.112 µM [rising, full curve, poor fit]
30 | COc1cc(/C=N\NC(=O)c2ccc(C)nc2)ccc1OC(=O)c1ccc2c(c1)OCO2 |  | inconclusive: 35.5 µM [falling, single point]
31 | CC1CCCCC1NC(=O)C1CCN(S(=O)(=O)c2cccc3nsnc23)CC1 (stereo unspecified) | inconclusive: -6.92% | 
32 | CC(O)CNCCCOc1cccc(Oc2ccccc2)c1 (stereo unspecified) | inconclusive: -12.5% | 
33 | COc1cc(NC(=O)c2cccs2)c(C(=O)OCC(=O)c2cc(C)n(-c3ccccc3)c2C)cc1OC | inactive | 
34 | Cc1occc1C(=O)N/N=C/c1cccc2ccccc12 |  | inconclusive: 11.2 µM [falling, partial curve]
35 | CCOc1ccc(/C=C2/C(=O)N(c3ccc(OC)cc3)C(=S)N2CC(=O)OC)cc1OCC | inconclusive: 11.7% | 
36 | CC(=O)Nc1cccc(C(=O)OC(C)C(=O)Nc2ccc(S(=O)(=O)N3CCCC3)cc2)c1 (stereo unspecified) | inconclusive: 2.75% | 
37 | C=CCNC(=O)c1onc(CSc2cccc(Cl)c2)c1C(=O)O |  | inconclusive: 25.1 µM [falling, single point]
38 | CCOC(=O)/C=C/[C@H]1CCc2cccc(C)c2O1 | inconclusive: 2.37% | 
39 | Cc1cccc(Cl)c1NC(=S)NN | inactive | 
40 | Cc1sc(NC(=O)c2cccc(N3C(=O)CCC3=O)c2)nc1-c1ccccc1 |  | inconclusive: 32.6 µM [falling, single point]
41 | Cc1ccccc1NS(=O)(=O)c1ccc(C(=O)NNC(=O)c2ccccc2O)cc1 | inconclusive: -25.5% | 
42 | COc1ccc(S(=O)(=O)N2CCN(Cc3ccc4c(c3)OCO4)CC2)cc1C |  | inconclusive: 0.891 µM [falling, full curve, poor fit]
43 | NC(=O)c1ccc(Sc2nnc(-c3cccs3)n2CC2CCCO2)c([N+](=O)[O-])c1 (stereo unspecified) | inconclusive: -11% | 
44 | CCN(C(=O)c1ccc(Cl)c([N+](=O)[O-])c1)c1ccccc1 | inconclusive: -1.63% | 
45 | CN1CCN(S(=O)(=O)c2csc(C(N)=O)c2)CC1 | inactive | 
46 | O=C(c1ccc2ncsc2c1)N1CCCCC1 | inconclusive: -19.3% | 
47 | COc1nc(Nc2ccc(OC)c(Cl)c2)nc(OC)n1 | inconclusive: -0.0324% | 
48 | COC(=O)c1c(-c2ccc(OC)cc2)sc2cc(OC)c(OC)cc12 | inconclusive: 0.641% | 
49 | COc1cnn(-c2cccc(C)c2)c(=O)c1Cl | inactive | 
50 | Fc1ccccc1NC(=S)NCc1ccc2c(c1)OCO2 | inconclusive: 3.74% | 
51 | O=S(=O)(NCCc1ccc(Cl)cc1)c1cccs1 | inconclusive: -1.78% | 
